This assay is described as follows: IkB Signaling. As to conditions: ABC-DLBCL IkBa-CBG/CBR dual luciferase ratio (green luciferase fused to IkBa over red control in OCI-Ly3 lymphoma cells), 4 h. Summed up: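 In this assay, an IκBα–CBG68 fusion accumulates when IKK-driven degradation is blocked; native CBR normalizes for cell number. OCI-Ly3 cells were treated 4 h with compound and doxycycline, then green and red light read after Chroma-Glo addition.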
[1] abbreviates: measured here: control luc red channel unless noted.
Where [2] appears, read: measured here: IkB-luc green channel.
Where [3] appears, read: measured here: control luc red channel.

Experimental findings from PubChem BioAssay AID445 (National Center for Advancing Translational Sciences (NCATS), 2006) are described below.

SMILES strings stand for the structures. The list shows a part of the results. Further columns of the screen follow, without active or inactive calls. Compounds called inactive in the main read-out are mostly missing here. The note in brackets gives the kind of curve behind each potency; many fits are weak.

For orientation: AC50 means the concentration at which the activity in the assay is half-maximal.

For `Cc1cc(C(=O)Nc2cccc(C(F)(F)F)c2)c2c(C)nn(-c3cccc(F)c3)c2n1`, the AC50 under setting [1] was 39.8 µM [falling, single point].

As to `CC(=O)Nc1ccc(NC(=O)CC(C)n2ccc(C)n2)cc1` (centres undefined), the AC50 under setting [1] is 12.6 µM [falling, partial curve, poor fit].

As to `Oc1ccc(O)c2c(O)cccc12`, the AC50 reads like this: under setting [2], 31.6 µM [rising, partial curve]; under setting [3], 0.631 µM [falling, full curve].

For the compound `Cc1cccc(N2C(=O)C(CC(=O)Nc3ccccc3)N(C3CCCCC3)C2=O)c1` (centres undefined), under setting [1], the AC50 was 39.8 µM [falling, single point].

With `CCOC(=O)c1c(C)[nH]c(C)c1S(=O)(=O)N(C)CC(=O)N1CCN(c2cccc(C)c2C)CC1`, under setting [1], the AC50 was 10 µM [falling, partial curve].

As for `O=C1c2ccccc2C(=O)N1CCCCSc1nnnn1-c1ccccc1`, the AC50 under setting [1] is 20 µM [falling, partial curve].

`CCOC(=O)c1c(C)oc2nc(C)nc(NCCCN3CCN(c4ccccc4OC)CC3)c12`: under setting [1], the AC50 is 25.1 µM [falling, partial curve].

As to `CCOc1ccc(C(=O)Nc2c(C)nc(Nc3ccccc3)nc2Nc2ccccc2)cc1OCC`, the AC50 under setting [1] was 25.1 µM [falling, partial curve].

With `COc1ccc(CCNc2nc(-c3ccccc3OC)cc(C(F)(F)F)n2)cc1OC`, under setting [1], the AC50 is 15.8 µM [falling, partial curve].

With `CCCn1nc(-c2ccccc2)c2nc3ccccc3nc21`, under setting [1], the AC50 is 5.01 µM [rising, single point].

`COc1ccc(C2C(C(=O)N3CCN(c4ccccc4F)CC3)c3ccccc3C(=O)N2C)cc1` (centres undefined): the AC50 under setting [1] was 25.1 µM [falling, partial curve].

For `O=C(NCCc1ccccc1)c1c2c(nc3ccccc13)C(=O)N(C1CCCCC1)C2`, the AC50 under setting [1] was 10 µM [falling, partial curve].

Consider `Cc1oc(-c2cccc(Cl)c2)nc1CN1CCC(C(=O)NCc2ccc(F)cc2)CC1`, for which the AC50 under setting [1] is 25.1 µM [falling, single point].

With `Cc1c(Cl)cc(C(C)(C)C)c(O)c1Cc1c(C)c(Cl)cc(C(C)(C)C)c1O`, under setting [1], the AC50 is 3.16 µM [falling, single point].

Take `CCCN1C(=O)c2[nH]nc(-c3ccc(F)cc3)c2C1c1ccc(O)c(OCC)c1` (centres undefined): the AC50 under setting [1] is 39.8 µM [falling, single point].

Turning to `COc1cccc(NC(=O)Cc2ccc(NC(=O)N3CCCCc4ccccc43)cc2)c1`, the AC50 under setting [1] was 12.6 µM [falling, partial curve].

In the case of `Cc1ccccc1Cn1c(=O)n(CCCCC(=O)NCc2ccc3c(c2)OCO3)c(=O)c2ccccc21`, under setting [1], the AC50 is 3.16 µM [rising, full curve].

As for `CN(C)Cc1nc2ccccc2c(=O)n1Cc1nc(-c2cc3ccccc3o2)cs1`, the AC50 under setting [1] is 25.1 µM [falling, partial curve].

`Cc1ccc(N2C(=O)CSC23C(=O)Nc2ccccc23)cc1F` (centres undefined): the AC50 under setting [1] is 25.1 µM [falling, partial curve].

As to `Cc1ccc2oc(C(=O)NCC(c3ccc(Cl)cc3)N3CCOCC3)c(C)c2c1` (centres undefined), the half-maximal activity concentration (AC50) under setting [1] is 25.1 µM [falling, partial curve].

With `O=[N+]([O-])c1cc(Cl)c(Cl)c(Cl)c1Cl`, under setting [1], the AC50 was 39.8 µM [rising, partial curve] [measured here: IkB-luc green channel].

Regarding `COc1ccccc1NC(=O)CN1C(=O)C(C)(C)c2ccccc21`, the AC50 under setting [2] was 31.6 µM [rising, single point] and the AC50 under setting [3] was 1 µM [rising, single point].

As for `O=C(O)c1ccccc1Nc1cccc(OCc2ccc3ccccc3n2)c1`, the AC50 under setting [1] is 5.01 µM [falling, partial curve].

For `O=C(Nc1nc2ccccc2[nH]1)C1CC(=O)N(c2ccc3c(c2)OCCO3)C1` (centres undefined), the AC50 under setting [1] is 20 µM [falling, partial curve].

Turning to `COC(=O)C(O)(CC(=O)Nc1ccc(OC(F)(F)F)cc1)C(F)(F)F` (centres undefined), under setting [1], the AC50 was 1.58 µM [falling, partial curve].

As to `CCCOc1ccc(CNC(=O)CCCN2C(=O)CSc3c2c(C)nn3-c2ccccc2)cc1`, the concentration at half-maximal activity (AC50) under setting [1] was 20 µM [falling, partial curve].

Regarding `COc1cccc(NC(=O)CCSc2nnc3scc(-c4ccccc4)n23)c1`, under setting [1], the AC50 is 20 µM [falling, partial curve].

For `CC1=C(C(=O)OCCOc2ccccc2)C(c2ccc(C)o2)C2=C(CC(C)(C)CC2=O)N1` (centres undefined), the AC50 under setting [1] is 10 µM [falling, partial curve].

For `N#Cc1cccc(NC(=O)C2CCN(S(=O)(=O)c3ccc4c(c3)CCCN4C(=O)C3CCC3)CC2)c1`, the AC50 under setting [1] is 0.251 µM [falling, full curve, poor fit].

Turning to `Cc1ccc(NCc2nnc(SCC(=O)NCc3ccco3)n2CC2CCCO2)cc1Cl` (centres undefined), under setting [1], the AC50 is 31.6 µM [falling, partial curve].

For the compound `COc1cc(SC)ccc1C(=O)N1CCn2c3c(c4cc(C)ccc42)CCCC31` (centres undefined), under setting [1], the AC50 was 12.6 µM [falling, partial curve].

As for `Cc1ccc(C(=O)Nc2c(C)nc3ccccn3c2=O)cc1`, the AC50 under setting [1] was 10 µM [rising, partial curve, poor fit].

As to `Cc1ccc(C)c(N2CCN(C(=O)CCc3c(C)nn(-c4ccc(N5CCCC5)nn4)c3C)CC2)c1`, under setting [1], the AC50 was 31.6 µM [falling, single point].

For the compound `COc1ccccc1CNC(=O)CSc1nc2nc(C)c(Cc3ccccc3C)c(C)n2n1`, the AC50 under setting [1] is 0.158 µM [falling, full curve].

As for `Cc1ccc(-c2c3c(=O)n(C)c(=O)n(C)c3cn2-n2cnnc2)cc1`, the AC50 under setting [1] is 31.6 µM [rising, partial curve] [measured here: IkB-luc green channel].

With `O=C(CCCCCn1c(=O)[nH]c2ccsc2c1=O)NCc1ccccc1`, the AC50 under setting [1] was 2 µM [falling, single point].

For `Cc1cc(C(=O)CSc2nnc(Nc3ccccc3F)s2)c(C)n1CC1CCCO1` (centres undefined), under setting [1], the AC50 was 25.1 µM [falling, partial curve].

Turning to `CCOc1ccc(CNC(=O)Cn2nc(N3CCN(c4ccccc4)CC3)ccc2=O)cc1`, the AC50 under setting [1] was 31.6 µM [falling, partial curve, poor fit].

As for `Cc1ccccc1CSc1nc2c([nH]c3ccccc32)c(=O)n1-c1ccccc1`, under setting [1], the AC50 is 1.58 µM [rising, full curve, poor fit].

Regarding `Cc1ccc(C(=O)N2CCN(c3ccccc3)CC2)cc1NC(=O)c1nsc2ccccc12`, the AC50 under setting [1] was 25.1 µM [falling, partial curve].

For the compound `N#Cc1c(C(F)(F)F)cc(-c2cccs2)nc1SCC(=O)Nc1cccc(Br)c1`, under setting [1], the AC50 was 3.16 µM [falling, full curve, poor fit].

For `Cc1ccc(-c2nnc(Nc3ccc(F)cc3)c3ccccc23)cc1S(=O)(=O)NC(C)C`, the AC50 under setting [1] was 10 µM [falling, partial curve].

Regarding `CC(C)c1ccc(NC(=O)C2CCCN(S(=O)(=O)c3ccc4[nH]c(=O)oc4c3)C2)cc1` (centres undefined), under setting [1], the AC50 is 15.8 µM [falling, single point].

For `Cn1c(-c2cccc(Br)c2)cnc1NCc1cccc(F)c1`, the AC50 under setting [1] was 7.94 µM [rising, full curve, poor fit].

In the case of `CC(=O)c1c(C)[nH]c(C(=O)CSc2nnc(-c3ccco3)n2Cc2ccccc2)c1C`, the AC50 under setting [1] was 15.8 µM [falling, partial curve].

For the compound `N#Cc1nc(-c2ccco2)oc1N1CCc2ccccc2C1`, under setting [1], the AC50 was 1.58 µM [rising, full curve].

On to `CC(C)CNC(=O)C(=O)Nc1c2c(nn1-c1ccc(Cl)cc1)CSC2`, for which the AC50 runs as follows: under setting [2], 3.16 µM [rising, single point]; under setting [3], 10 µM [rising, partial curve].

For `CCOc1ccc(NC(=O)CSc2nc3ccccc3nc2N2CCOCC2)cc1`, the AC50 under setting [1] is 20 µM [falling, single point].

On to `COc1ccc(S(=O)(=O)NC(C)(C)CO)cc1-c1nnc2c3ccccc3c(C)nn12`, for which the AC50 under setting [1] was 3.16 µM [rising, single point].

Regarding `O=c1c(N2CCN(c3ccc(F)cc3)CC2)csc2ccc(F)cc12`, the AC50 under setting [1] is 15.8 µM [falling, partial curve].

Take `CC1CCN(S(=O)(=O)c2ccc3nc(Nc4cccc(F)c4)ccc3c2)CC1`: the AC50 under setting [1] was 25.1 µM [falling, single point].

In the case of `c1ccc(Nc2nc3ccccc3n3cnnc23)cc1`, under setting [1], the AC50 was 0.631 µM [rising, full curve].

Regarding `O=C(c1cn(-c2ccccc2)nc1-c1cccs1)N1CCN(c2ccccn2)CC1`, under setting [1], the AC50 was 31.6 µM [falling, partial curve].

As to `COc1ccc(OC)c(N(C)S(=O)(=O)c2ccc3c(c2)NC(=O)CC(=O)N3)c1`, under setting [1], the AC50 is 10 µM [falling, partial curve].

As to `O=S(=O)(Cc1ccccc1)N1CCCC(c2nc(-c3ccc(F)cc3)no2)C1` (centres undefined), the AC50 under setting [1] is 12.6 µM [falling, partial curve].

In the case of `Cc1ccc(NC(=O)CCCn2c(=O)c3cccn3c3cccnc32)c(C)c1`, under setting [1], the AC50 was 0.0631 µM [rising, full curve].

Regarding `CCCN(CCC)C(=O)CSc1nc2n[nH]c(C)c2c(=N)n1-c1ccc(OCC)cc1`, the concentration at half-maximal activity (AC50) under setting [1] is 15.8 µM [falling, partial curve].

As for `COc1ccccc1N1CCN(CC(=O)Nc2cc(F)ccc2C)CC1`, the AC50 under setting [1] was 20 µM [falling, partial curve].

On to `COc1ccc(NC(=O)c2[nH]c(C)c(C(C)=O)c2C)cc1Cl`, for which, under setting [1], the AC50 is 25.1 µM [falling, single point].

Take `CCOc1ccc(NC(=O)c2cnn3c2NC(C)=C(C(=O)Nc2ccc(Cl)cc2)C3c2ccc(OC)c(OC)c2)cc1` (centres undefined): the AC50 under setting [1] is 0.00631 µM [falling, full curve, poor fit].

As to `COc1ccc(N(C)C(=O)c2oc(=O)c3ccccc3c2-c2ccc(C)cc2)c(OC)c1`, under setting [1], the AC50 is 39.8 µM [falling, single point].
